# Hit rate of the full screen: of about 400,000 compounds, about 13,000 (3.2%) were called active. Inconclusive results, whose numbers are uncertain, are shown with a selection of clear calls. The call rests on the fitted dose curve; in most records, active means well fitted cell-killing curve with a large enough effect; inconclusive means small, poorly fitted or top-dose-only effect, or effect the other way; inactive means flat fitted curve, though single readings scatter. A potency beside an inconclusive call is a rough fit, not a confirmed value.
# Assay: qHTS assay for MDR1-selective chemotherapeutics: Primary screen using the drug-selected MDR subline cells KB-V1; further: nearly all actives have a fitted effect of over 60% in size
# Details: KB-V1 MDR cells viability, CellTiter-Glo, 72 h; activity change, negative = cytotoxicity: at 46.1 µM (top of the series)
# Procedure, shortened: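 KB-V1 cells (P-gp-expressing MDR subline of KB-3-1) in phenol-red-free DMEM with 10% FBS were exposed to library compounds over a concentration series for 72 h at 37 degrees C. Viability read by CellTiter-Glo luminescence; concentration-effect curves fitted after normalization.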
# On the % scale 0 is the no-effect control and ±100 the full control effect; potency means the concentration at half of the fitted maximal effect.
Compound,Potency,"activity change, negative = cytotoxicity"
Cc1cc2cc(CN(Cc3cccs3)C(=S)NCc3ccco3)c(=O)[nH]c2cc1C,inactive,–
CCOC(=O)c1c(-c2ccc(OC)cc2)nc2nonc2c1N,active: 13 µM,–
CS(=O)(=O)Nc1ccc(C2=NN(C(=O)c3cccc(F)c3)C(c3cccs3)C2)cc1 (stereo not given),inactive,–
CCS(=O)(=O)N1CCC(C(=O)Oc2ccccc2Cl)CC1,"inconclusive: 13 µM [rising, partial curve, poor fit]",–
Cc1cc(C)cc(NC(=O)C(Sc2ncnc3ccccc23)c2ccccc2)c1 (stereo not given),"inconclusive: 20.6 µM [cytotoxic, single point]",–
COCCCNC(=O)c1cccc2c(-c3ccc(OC)cc3C)coc12,"inconclusive: 23.1 µM [cytotoxic, single point]",–
CCN(Cc1nc2ccccc2c(=O)[nH]1)C(=O)c1cccc(OCc2c(C)noc2C)c1,"inconclusive: 23.1 µM [cytotoxic, partial curve]",–
CCOc1ccc(CC(=O)NCCS(=O)(=O)N2CCN(c3ccccc3)CC2)cc1,"inconclusive: 8.2 µM [cytotoxic, partial curve]",–
CCN(CC)Cc1c(C)[nH]c2ccc(NC(C)=O)cc2c1=O,inactive,–
Cc1ccc2[nH]c(C(=O)N/N=C/c3ccccc3C(=O)O)c(-c3ccccc3)c2c1,inactive,–
COc1cc(/C=N/NC(=O)c2cc(-c3cccc(Br)c3)nc3ccccc23)cc(OC)c1O,–,inconclusive: -24.2%
COc1ccc(NC(=O)CN(C)C(=O)c2sc3ccccc3c2Cl)cc1,"inconclusive: 29.1 µM [cytotoxic, single point]",–
N#CCC(=O)N/N=C/c1c2ccccc2cc2ccccc12,inactive,–
O=S(Cc1ccc(Cl)cc1)CC(O)COc1ccc(Cl)cc1 (stereo not given),"inconclusive: 16.4 µM [cytotoxic, single point]",–
Cc1csc(-c2nc3ccccc3n2C(C(=O)Nc2c(C)cccc2C)C2CC2)c1 (stereo not given),"inconclusive: 9.2 µM [cytotoxic, partial curve]",–
COc1ccc(Cn2c(CCC(=O)Nc3cc(OC)c(OC)c(OC)c3)nc3cccnc32)cc1,inactive,–
Cc1ccc(/C=C2\SC(=S)N(Cc3ccccc3)C2=O)o1,inactive,–
COc1ccc(C2c3c(-c4ccccc4O)n[nH]c3C(=O)N2CCc2ccc(OC)c(OC)c2)cc1 (stereo not given),"inconclusive: 18.4 µM [cytotoxic, single point]",–
COC(=O)c1ccc(N2CCCCC2)c(NS(=O)(=O)c2ccc(C)cc2)c1,"inconclusive: 29.1 µM [cytotoxic, single point]",–
O=C(Nc1nnc(C2CC2)o1)c1ccc(S(=O)(=O)N2CCCc3ccccc32)cc1,inactive,–
COc1nc(C#N)nc(N(C)C)n1,"inconclusive: 29.1 µM [rising, single point]",–
O=S(=O)(c1ccc(F)c(F)c1F)N1CCN(c2ncnc3sccc23)CC1,active: 2.31 µM,–
Cc1cccc(-n2c(SCC(=O)Nc3ncc(Cl)cc3Cl)nc3ccccc32)c1,"inconclusive: 3.66 µM [cytotoxic, full curve]",–

# Whole records, quoted from the list. Values in the order: Potency | activity change, negative = cytotoxicity
# O=C(Nc1nnc(C2CC2)o1)c1ccc(S(=O)(=O)N2CCCc3ccccc32)cc1 as listed: inactive | –
# Cc1ccc2[nH]c(C(=O)N/N=C/c3ccccc3C(=O)O)c(-c3ccccc3)c2c1 as listed: inactive | –

# Carrying on:

Compound,Potency,"activity change, negative = cytotoxicity"
CCCCCOc1ccc(Br)cc1/C(C)=N/NC1=NCCN1,"inconclusive: 14.6 µM [cytotoxic, partial curve, poor fit]",–
Cc1ccc(S(=O)(=O)Nc2ccc(Cl)cc2O)cc1,active: 20.6 µM,–
Nc1nc(CN2CCC(Cc3ccccc3)CC2)nc(Nc2ccccc2)n1,inactive,–
O=C(NC(NC(=S)Nc1ccccc1)C(Cl)(Cl)Cl)c1cccc(Cl)c1 (stereo not given),"inconclusive: 20.6 µM [cytotoxic, partial curve, poor fit]",–
CCN(c1ccccc1)S(=O)(=O)c1ccc(NC(=O)c2nc(SC)ncc2Cl)cc1,"inconclusive: 20.6 µM [cytotoxic, single point]",–
O=C(N/N=C/c1c(Cl)cccc1Cl)c1ccc(F)cc1,inactive,–
CC(C)CC1C(=O)N(Cc2cn(CC3CCCCC3)nn2)CCS(=O)(=O)N1Cc1ccc(-c2ccc(F)nc2)cc1 (stereo not given),"inconclusive: 14.6 µM [cytotoxic, partial curve]",–
C/C(=N\NC(=O)c1ccc(Br)cc1)C1C(=O)c2ccccc2C1=O,"inconclusive: 23.1 µM [cytotoxic, single point]",–
COc1ccc(Nc2nnc(SCc3cc(=O)n4ccsc4n3)s2)cc1,"inconclusive: 29.1 µM [cytotoxic, single point]",–
CCN(c1cccc(C)c1)S(=O)(=O)c1cc2c3c(c1)CCN3C(=O)CC2,"inconclusive: 18.4 µM [cytotoxic, partial curve]",–
Cc1cccc2c3nc4ccccc4nc3n(C)c12,"inconclusive: 3.26 µM [cytotoxic, partial curve, poor fit]",–
Cc1ccc2c(c1Br)C(O)(CC(=O)c1ccc(F)cc1)C(=O)N2 (stereo not given),inactive,–
N#Cc1nc(N2CCCCC2)nc(N2CCCCC2)n1,inactive,–
Cc1c(C(=O)NCc2ccc(Cl)c(Cl)c2)sc(=O)n1Cc1ccc(C(=O)N(C)C)cc1,"inconclusive: 20.6 µM [cytotoxic, single point]",–
Cc1c(NC(=O)/C(C#N)=C/c2ccc(-c3ccc(Cl)c(Cl)c3)o2)c(=O)n(-c2ccccc2)n1C,inactive,–
CSc1ccc(C(=O)C2CCCN(C(=O)c3cc4cc(F)ccc4[nH]3)C2)cc1 (stereo not given),"inconclusive: 0.0116 µM [rising, full curve, poor fit]",–
Cn1ncc([N+](=O)[O-])c1C(=O)Nc1ccccc1Cl,"inconclusive: 20.6 µM [rising, single point]",–
COc1ccccc1N1CCN(c2nc3c(C)cccn3c(=O)c2C=O)CC1,active: 23.1 µM,–
CCOC(=O)c1ccc(N2C(=O)c3[nH]nc(-c4ccccc4)c3C2c2ccc(CC)cc2)cc1 (stereo not given),active: 23.1 µM,–
Cc1cc(C)n2nc(CC#N)c(C#N)c2n1,"inconclusive: 29.1 µM [rising, single point]",–
Cc1ccc2[nH]c(=O)c(-c3nc4cc(C)ccn4c3NCc3ccco3)cc2c1,"inconclusive: 4.11 µM [cytotoxic, partial curve]",–
CC(C)(C)C1CCC(=O)N(CCSc2ccccc2)CC1 (stereo not given),"inconclusive: 14.6 µM [cytotoxic, partial curve]",–
